Experimental data: PubChem BioAssay AID504793 (Drosophila RNAi Screening Center, 2011)
The deposit covers about 23,000 reagents; this is a random part of those with a known target gene and a result. Of all reagents, 62 (0.27%) got an active call. 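Calls come from follow-up tests whose scores are not deposited, so confirmed genes may have low counts here; counts are not normalised per plate.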 Raw values are not corrected between plates.

Screen: 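Knock-downs allowing continued mitosis even though DNA is damaged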 (primary screen)
System: Drosophila S2R+ cells
Reagents: long dsRNA against Drosophila genes, about 0.25 µg dsRNA per well
Time to read-out: 4 days of dsRNA, then 4 hours of drug before read-out
Conditions: doxorubicin 0.5 µM for 4 hours to cause double-strand breaks, in cells also given a low, harmless dose of dsRNA against nbs to sensitise the assay
Measurement: 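Mitotic index as the number of phospho-histone H3-positive cells in each well following doxorubicin, given as raw counts without normalisation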
Reading the numbers: mitotic cells: higher = more cells in mitosis, weaker G2 arrest
Call rule: 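a call needs confirmation in secondary tests, with other dsRNAs and a check of mitotic timing without damage, not just a high primary count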
Calls: active = confirmed in follow-up tests; inactive = not confirmed

Cdc2rk (Cdc2-related kinase) [DRSC07590] → mitotic cells, replicate 1 = 9; call = inactive
Cdc2rk (Cdc2-related kinase) [DRSC29758] → mitotic cells, replicate 1 = 7; call = inactive
Syx18 (Syntaxin 18) [DRSC14628] → mitotic cells, replicate 1 = 13; call = inactive
CG13793 [DRSC02297] → mitotic cells, replicate 1 = 8; call = inactive
CG13793 [DRSC28252] → mitotic cells, replicate 1 = 6; call = inactive
CG4049 [DRSC04443] → mitotic cells, replicate 1 = 2; call = inactive
CG4049 [DRSC29138] → mitotic cells, replicate 1 = 5; call = inactive
CG1494 [DRSC20509] → mitotic cells, replicate 1 = 12; call = inactive
Rubicon [DRSC17889] → mitotic cells, replicate 1 = 6; call = inactive
Rubicon [DRSC25992] → mitotic cells, replicate 1 = 8; call = inactive
AIMP3 (aaRS-interacting multifunctional protein 3) [DRSC04500] → mitotic cells, replicate 1 = 8; call = inactive
AIMP3 (aaRS-interacting multifunctional protein 3) [DRSC26724] → mitotic cells, replicate 1 = 5; call = inactive
CG33298 [DRSC02210] → mitotic cells, replicate 1 = 9; call = inactive
CG33298 [DRSC02672] → mitotic cells, replicate 1 = 8; call = inactive

2 entries already listed, arranged by “mitotic cells, replicate 1”, highest first.
CG13793 [DRSC02297] → mitotic cells, replicate 1 = 8; call = inactive
CG13793 [DRSC28252] → mitotic cells, replicate 1 = 6; call = inactive
